In article PMC12005807:
No constants are given. Whether binding was seen depends on the method and setting. For some assays here: In cells and extracts the contact can be indirect. Some binding calls cover weakened binding; strength is not graded here. Tags and fused reporters may be left off the sequences shown.

The chains behind the UniProt entries cited, without tags or fusion partners.
UniProt Q9QUR7: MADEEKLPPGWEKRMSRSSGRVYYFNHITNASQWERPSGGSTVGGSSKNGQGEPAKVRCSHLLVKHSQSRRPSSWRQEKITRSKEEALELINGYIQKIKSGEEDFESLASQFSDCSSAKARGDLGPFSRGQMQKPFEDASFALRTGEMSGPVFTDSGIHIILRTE

Legend:
GST-Gbp2 = target: T1, GST-Gbp2 (UniProt Q9Z0E6); test: pull-down; printed as 'in vitro binding assay' with recombinant GST-Gbp2 and His-Pin1 purified from bacteria; which protein was held is not told; both purified
T1 sequence: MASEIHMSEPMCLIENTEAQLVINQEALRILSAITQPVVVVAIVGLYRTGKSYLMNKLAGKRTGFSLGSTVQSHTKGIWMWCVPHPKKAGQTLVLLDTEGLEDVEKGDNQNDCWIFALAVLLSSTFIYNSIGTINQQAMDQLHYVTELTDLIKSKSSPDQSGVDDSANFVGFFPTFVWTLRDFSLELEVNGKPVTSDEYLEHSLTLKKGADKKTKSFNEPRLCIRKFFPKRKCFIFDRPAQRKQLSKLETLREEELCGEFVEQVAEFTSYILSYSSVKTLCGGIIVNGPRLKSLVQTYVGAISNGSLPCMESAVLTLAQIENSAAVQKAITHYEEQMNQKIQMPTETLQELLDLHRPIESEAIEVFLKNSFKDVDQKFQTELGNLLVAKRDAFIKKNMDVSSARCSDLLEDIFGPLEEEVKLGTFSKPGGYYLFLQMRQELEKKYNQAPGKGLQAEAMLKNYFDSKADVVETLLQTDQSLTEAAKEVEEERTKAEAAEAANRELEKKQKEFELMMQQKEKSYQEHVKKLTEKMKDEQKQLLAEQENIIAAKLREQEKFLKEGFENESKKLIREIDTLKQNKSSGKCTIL

Flag-tagged Gbp2 = target: T2, Flag-tagged Gbp2 (UniProt Q9Z0E6); test: co-IP; lysate of RAW264.7 macrophages transfected with Flag-Gbp2, in IP lysis buffer; incubated overnight at 4 °C with anti-Flag magnetic beads; washed five times with 1% TBST; western blot
T2 sequence: T1 sequence

With His-Pin1 (from UniProt Q9QUR7 1-165) the binding (GST-Gbp2) was “binds”.
Pin1 (from UniProt Q9QUR7 1-165) was tested, and the binding (Flag-tagged Gbp2) was “binds”.
